These are yes or no findings as the source states them, for the method shown. Binding seen in cells or lysates may run through a third protein. Here binding means that the protein was enriched with, or labelled near, the bait; the list need not be complete. Where a sequence is shown, tags or fusion partners need not be part of it.
Assays:
FLAG-NPRL2-GFP (human) = target: T1, FLAG-NPRL2-GFP (human) (UniProt Q8WTW4); experiment: affinity purification with mass spectrometry; in-house polyclonal anti-GFP antibodies coupled to Dynabeads; clarified extracts of cryo-milled HEK293 cells stably expressing FLAG-NPRL2-GFP, NPRL3-GFP or GFP; 40 mM HEPES, pH 7.4, 2.5 mM MgCl2, 1% Triton X-100; three technical replicates; label-free quantification
T1 sequence: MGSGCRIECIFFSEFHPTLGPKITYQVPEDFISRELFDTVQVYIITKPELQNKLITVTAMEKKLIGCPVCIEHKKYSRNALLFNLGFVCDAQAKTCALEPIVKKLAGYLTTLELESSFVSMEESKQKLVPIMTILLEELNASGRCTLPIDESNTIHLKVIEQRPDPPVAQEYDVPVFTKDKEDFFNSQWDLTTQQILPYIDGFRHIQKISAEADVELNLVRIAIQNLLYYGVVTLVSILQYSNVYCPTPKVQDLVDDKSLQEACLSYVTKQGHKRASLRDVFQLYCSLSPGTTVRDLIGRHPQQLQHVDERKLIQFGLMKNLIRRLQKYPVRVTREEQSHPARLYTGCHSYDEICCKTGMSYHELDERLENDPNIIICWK

Amino acid sequences for entries named in this document (tags omitted). Residues count along the entry.
UniProt O75140: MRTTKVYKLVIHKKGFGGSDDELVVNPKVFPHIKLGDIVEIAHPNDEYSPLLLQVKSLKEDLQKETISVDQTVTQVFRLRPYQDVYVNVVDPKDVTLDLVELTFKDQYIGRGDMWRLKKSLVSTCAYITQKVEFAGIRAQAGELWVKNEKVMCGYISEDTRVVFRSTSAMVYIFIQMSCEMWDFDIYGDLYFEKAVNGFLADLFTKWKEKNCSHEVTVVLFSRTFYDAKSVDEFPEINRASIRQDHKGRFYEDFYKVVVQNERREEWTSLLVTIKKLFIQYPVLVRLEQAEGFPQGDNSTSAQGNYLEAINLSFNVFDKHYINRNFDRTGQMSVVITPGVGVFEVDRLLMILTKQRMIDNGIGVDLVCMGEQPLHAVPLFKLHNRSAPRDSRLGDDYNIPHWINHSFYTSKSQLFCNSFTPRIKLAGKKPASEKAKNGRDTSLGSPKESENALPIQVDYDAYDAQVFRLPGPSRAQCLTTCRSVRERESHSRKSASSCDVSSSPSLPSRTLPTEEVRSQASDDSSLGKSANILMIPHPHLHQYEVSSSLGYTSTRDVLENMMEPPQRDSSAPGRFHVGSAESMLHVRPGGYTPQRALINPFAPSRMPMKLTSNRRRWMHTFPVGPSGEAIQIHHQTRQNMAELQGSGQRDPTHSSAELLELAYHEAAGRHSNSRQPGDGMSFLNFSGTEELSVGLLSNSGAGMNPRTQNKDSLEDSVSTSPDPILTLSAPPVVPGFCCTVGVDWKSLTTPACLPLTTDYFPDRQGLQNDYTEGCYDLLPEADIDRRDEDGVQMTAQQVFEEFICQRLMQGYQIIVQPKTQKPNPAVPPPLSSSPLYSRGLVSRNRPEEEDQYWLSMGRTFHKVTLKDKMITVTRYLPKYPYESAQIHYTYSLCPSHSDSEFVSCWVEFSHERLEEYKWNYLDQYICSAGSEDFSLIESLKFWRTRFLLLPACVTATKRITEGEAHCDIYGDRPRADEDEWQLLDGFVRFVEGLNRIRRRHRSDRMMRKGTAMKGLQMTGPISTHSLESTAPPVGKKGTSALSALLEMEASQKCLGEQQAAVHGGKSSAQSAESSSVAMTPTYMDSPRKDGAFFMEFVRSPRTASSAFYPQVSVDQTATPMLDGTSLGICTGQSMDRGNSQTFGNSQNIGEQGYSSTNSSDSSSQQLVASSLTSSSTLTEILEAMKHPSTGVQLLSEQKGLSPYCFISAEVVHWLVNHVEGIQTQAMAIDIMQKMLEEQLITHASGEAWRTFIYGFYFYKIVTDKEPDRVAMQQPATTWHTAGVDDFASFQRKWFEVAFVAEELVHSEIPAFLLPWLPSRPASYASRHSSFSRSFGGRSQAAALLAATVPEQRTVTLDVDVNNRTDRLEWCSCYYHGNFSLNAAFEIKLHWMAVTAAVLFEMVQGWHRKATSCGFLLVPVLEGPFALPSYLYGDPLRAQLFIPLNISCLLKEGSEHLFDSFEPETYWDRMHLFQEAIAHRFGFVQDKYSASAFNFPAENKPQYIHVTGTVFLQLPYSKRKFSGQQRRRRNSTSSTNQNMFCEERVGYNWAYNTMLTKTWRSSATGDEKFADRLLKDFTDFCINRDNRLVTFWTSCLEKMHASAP
UniProt O95831, residues 102-613: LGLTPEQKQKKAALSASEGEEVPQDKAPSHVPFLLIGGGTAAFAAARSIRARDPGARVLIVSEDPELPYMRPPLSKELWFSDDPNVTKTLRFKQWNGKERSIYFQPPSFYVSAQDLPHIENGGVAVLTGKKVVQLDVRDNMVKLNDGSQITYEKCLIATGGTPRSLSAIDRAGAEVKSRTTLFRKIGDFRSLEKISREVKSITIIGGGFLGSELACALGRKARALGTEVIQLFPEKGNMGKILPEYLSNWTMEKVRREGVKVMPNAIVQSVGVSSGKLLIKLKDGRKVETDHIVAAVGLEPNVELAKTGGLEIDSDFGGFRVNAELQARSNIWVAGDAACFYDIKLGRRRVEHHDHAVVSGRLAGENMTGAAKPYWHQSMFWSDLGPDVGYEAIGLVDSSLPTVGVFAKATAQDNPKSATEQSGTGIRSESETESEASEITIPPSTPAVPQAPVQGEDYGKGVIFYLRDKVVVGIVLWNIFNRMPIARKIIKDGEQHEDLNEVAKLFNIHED

NPRL3-GFP = target: T2, NPRL3-GFP (UniProt Q12980); experiment: as above
T2 sequence: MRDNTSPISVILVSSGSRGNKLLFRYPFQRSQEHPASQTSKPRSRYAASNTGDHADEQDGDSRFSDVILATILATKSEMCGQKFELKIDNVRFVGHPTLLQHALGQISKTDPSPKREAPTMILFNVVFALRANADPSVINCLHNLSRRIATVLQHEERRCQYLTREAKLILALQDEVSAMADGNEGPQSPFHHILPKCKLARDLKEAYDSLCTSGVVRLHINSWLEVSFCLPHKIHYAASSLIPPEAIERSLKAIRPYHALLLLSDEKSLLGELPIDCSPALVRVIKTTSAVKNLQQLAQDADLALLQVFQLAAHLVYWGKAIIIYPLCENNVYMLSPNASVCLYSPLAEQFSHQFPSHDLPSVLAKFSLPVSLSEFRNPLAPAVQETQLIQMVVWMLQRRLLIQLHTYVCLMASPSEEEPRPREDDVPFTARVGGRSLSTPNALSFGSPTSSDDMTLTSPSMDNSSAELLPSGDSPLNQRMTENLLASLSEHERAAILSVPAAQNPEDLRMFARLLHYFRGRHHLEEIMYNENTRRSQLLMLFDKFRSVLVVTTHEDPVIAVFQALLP

Substance	binding (FLAG-NPRL2-GFP (human))	binding (NPRL3-GFP)
DEPDC5 (from UniProt O75140 1-1603)	binds	
apoptosis-inducing factor (AIF) (from UniProt O95831 102-613)	binds	binds
